The list shows only some results of the screen, not a fair sample: it gathers tests that were run many times, whatever their T/C, doses with no T/C, and many T/C values between a quarter and a half above the control. Further doses and runs are listed elsewhere. T/C is the treated group as % of the vehicle group. Some entries give survivors of the animals treated and no T/C: the source files T/C as zero there, which appears to mark a toxic dose or a test without result, not a measured value. Some doses without a T/C left all or most animals alive at the check, yet need not have been tolerated: survival well below the control is almost never listed, so the zero probably covers shortened survival too. Survivors were counted at the toxicity check, usually on the fifth day, unless a day is given; later deaths do not show. Schedules are NCI's codes, taken here to give the interval after Q, in days (D) or hours (H), and the number of doses after X. Some entries were tested several times; their values stand side by side, smallest first. For survival time, the PubChem record calls one and a half times the control and up active, and a quarter to a half above the control has no call in these data; cut-offs in other NCI protocols can differ. Some T/C values are followed by the survivors on the day toxicity was checked, most often the fifth; without a count, all were alive then. Signs of the kind (2×) give the number of equal values in this list.

This is an account of results in PubChem BioAssay AID292 (DTP/NCI, 2004).

In this assay the test system is B6C3F1 mice, ip Sarcoma M5076, median survival T/C. Put plainly: NCI In Vivo Anticancer Drug Screen. Data for tumor model Sarcoma M5076 (intraperitoneal) in B6C3F1 mice. The note with it: T/C endpoint: median survival time, higher T/C = longer survival. The procedure:
The antitumor activity of compounds was measured in mice bearing transplantable tumors. Survival or tumor size were measured and the results are expressed as the measurement made in the treated group (T) divided by the measurement made in the vehicle treated control group (C). The tumor model used in this assay is Sarcoma M5076 (intraperitoneal) in B6C3F1 mice

Where [1] appears, read: dose: 60.0 mg/kg/injection, schedule: Q04DX004 (ip), vehicle: saline.
The mark [2] stands for this setting: dose: 120.0 mg/kg/injection, schedule: Q01DX001 (ip), vehicle: saline.
The mark [3] stands for this setting: dose: 120.0 mg/kg/injection, schedule: Q04DX004 (ip), vehicle: saline.
The mark [4] stands for this setting: dose: 160.0 mg/kg/injection, schedule: Q04DX005 (ip), vehicle: saline.
Where [5] appears, read: dose: 240.0 mg/kg/injection, schedule: Q01DX001 (ip), vehicle: saline.
The mark [6] stands for this setting: dose: 400.0 mg/kg/injection, schedule: Q04DX004 (ip), vehicle: saline with Tween-80.

In the case of `O=P1(N(CCCl)CCCl)NCCCO1` (stereo not given), the T/C reads like this: (dose: 15.0 mg/kg/injection, schedule: Q04DX004 (ip), vehicle: saline) 99, 100, 104, 108, 110 (2×), 111, 112, 115, 118, 121 % of control; (dose: 20.0 mg/kg/injection, schedule: Q04DX004 (ip), vehicle: saline) 100, 105, 115, 117, 118 % of control; (dose: 20.0 mg/kg/injection, schedule: Q04DX005 (ip), vehicle: saline) 101, 110 [9 of 10 alive on day 9], 122 (2×), 131 % of control; (dose: 30.0 mg/kg/injection, schedule: Q01DX001 (ip), vehicle: saline) 98, 100, 101, 107, 110 (2×), 112, 114, 115, 124 % of control; (dose: 30.0 mg/kg/injection, schedule: Q04DX004 (ip), vehicle: saline) 113, 114 [9 of 10 alive on day 14], 115, 116, 118, 119, 125 (2×), 127 [8 of 10 alive on day 14], 138, 141 % of control; (dose: 40.0 mg/kg/injection, schedule: Q04DX003 (ip), vehicle: saline) 147 % of control. The T/C runs as follows: (dose: 40.0 mg/kg/injection, schedule: Q04DX004 (ip), vehicle: saline, evaluated on day 29) 138 % of control; (dose: 40.0 mg/kg/injection, schedule: Q04DX004 (ip), vehicle: saline, evaluated on day 36) 180 % of control; (dose: 40.0 mg/kg/injection, schedule: Q04DX004 (ip), vehicle: saline, evaluated on day 37) 138 % of control; (dose: 40.0 mg/kg/injection, schedule: Q04DX004 (ip), vehicle: saline, evaluated on day 40) 194 % of control; (dose: 40.0 mg/kg/injection, schedule: Q04DX004 (ip), vehicle: saline, evaluated on day 43) 185 and 199 % of control; (dose: 40.0 mg/kg/injection, schedule: Q04DX004 (ip), vehicle: saline, evaluated on day 49) 188 % of control. Moreover, the T/C is 116, 127, 132, 135, 136, 138, 143, 146, 149 (2×), 150 (2×), 152 (2×), 153, 156, 157, 158, 160 (2×), 163, 165 (2×), 167, 168, 169 (2×), 170, 172 (2×), 174 (3×), 175 (3×), 177 (2×), 178, 181, 182, 188, 192, 193 (2×), 195, 198, 200, 201, 212, 213, 214, 216, 220, 222, 266 % of control (dose: 40.0 mg/kg/injection, schedule: Q04DX004 (ip), vehicle: saline, evaluated on day 60); 128 % of control (dose: 40.0 mg/kg/injection, schedule: Q04DX004 (ip), vehicle: saline, evaluated on day 69); 101 [9 of 10 alive], 129, 140, 156, 161 % of control (dose: 40.0 mg/kg/injection, schedule: Q04DX004 (ip), vehicle: saline, evaluated on day 75); 115, 122, 146, 158, 173 % of control (dose: 40.0 mg/kg/injection, schedule: Q04DX005 (ip), vehicle: saline); 107, 115, 118 (2×), 124, 128, 129, 130, 132, 133 % of control [9 of 10 alive on day 14] (dose: 60.0 mg/kg/injection, schedule: Q01DX001 (ip), vehicle: saline); 145, 161, 163 (2×), 165, 170, 173, 175, 177, 180, 206, 207 (2×), 212 % of control under setting [1]. The T/C was 138 % of control [9 of 10 alive on day 14] (dose: 80.0 mg/kg/injection, schedule: Q04DX004 (ip), vehicle: saline, evaluated on day 29); 180 % of control (dose: 80.0 mg/kg/injection, schedule: Q04DX004 (ip), vehicle: saline, evaluated on day 36); 160 % of control (dose: 80.0 mg/kg/injection, schedule: Q04DX004 (ip), vehicle: saline, evaluated on day 37); 194 % of control (dose: 80.0 mg/kg/injection, schedule: Q04DX004 (ip), vehicle: saline, evaluated on day 40); 199 and 207 % of control (dose: 80.0 mg/kg/injection, schedule: Q04DX004 (ip), vehicle: saline, evaluated on day 43); 234 % of control (dose: 80.0 mg/kg/injection, schedule: Q04DX004 (ip), vehicle: saline, evaluated on day 49). In addition, the T/C is 126, 133, 165, 166, 179, 189, 190, 192, 198, 200, 201, 204, 205, 207 (2×), 209, 213, 214 [9 of 10 alive on day 14], 216, 219 (2×), 220 [7 of 10 alive on day 14], 223, 224, 226, 228, 231, 232 (2×), 233, 234 (3×), 235 (3×), 236, 238, 239 (2×), 241 (2×), 242 (2×), 244, 245 (2×), 246 (2×), 251, 252, 252 [9 of 10 alive on day 14], 263, 266, 277, 281, 286, 291 % of control (dose: 80.0 mg/kg/injection, schedule: Q04DX004 (ip), vehicle: saline, evaluated on day 60); 143, 183, 186, 225, 231 [9 of 10 alive on day 14], 235 % of control (dose: 80.0 mg/kg/injection, schedule: Q04DX004 (ip), vehicle: saline, evaluated on day 75); 152, 198, 206, 252, 276 % of control (dose: 80.0 mg/kg/injection, schedule: Q04DX005 (ip), vehicle: saline); 134, 137, 153, 158, 159 (2×), 163, 167, 177 % of control under setting [2]; 107 [9 of 10 alive on day 14], 143, 144 [9 of 10 alive on day 14], 199, 221, 223, 229, 241, 250, 263, 265, 269, 275, 276 % of control under setting [3]; 138 % of control (dose: 160.0 mg/kg/injection, schedule: Q04DX004 (ip), vehicle: saline, evaluated on day 29). In addition, the T/C is 180 % of control (dose: 160.0 mg/kg/injection, schedule: Q04DX004 (ip), vehicle: saline, evaluated on day 36); 160 % of control (dose: 160.0 mg/kg/injection, schedule: Q04DX004 (ip), vehicle: saline, evaluated on day 37); 194 % of control (dose: 160.0 mg/kg/injection, schedule: Q04DX004 (ip), vehicle: saline, evaluated on day 40); 199 and 207 % of control (dose: 160.0 mg/kg/injection, schedule: Q04DX004 (ip), vehicle: saline, evaluated on day 43); 234 % of control (dose: 160.0 mg/kg/injection, schedule: Q04DX004 (ip), vehicle: saline, evaluated on day 49); 86, 93, 95, 112 [8 of 10 alive on day 14], 115, 141, 159, 219 [9 of 10 alive on day 14], 220, 224, 227 [9 of 10 alive on day 14], 228, 230, 230 [9 of 10 alive on day 14], 232, 232 [8 of 10 alive on day 14], 241, 242, 244, 245, 246, 246 [9 of 10 alive on day 14], 247 (2×), 248, 249, 250, 253 (3×), 254, 260, 262, 267, 268, 269 (2×), 270, 270 [9 of 10 alive on day 14], 272, 275 (2×), 275 [9 of 10 alive on day 14], 276 (2×), 277 (3×), 280, 285, 287 (2×), 291 (2×), 292, 304 % of control (dose: 160.0 mg/kg/injection, schedule: Q04DX004 (ip), vehicle: saline, evaluated on day 60). Also, the T/C (dose: 160.0 mg/kg/injection, schedule: Q04DX004 (ip), vehicle: saline, evaluated on day 75) is given as 178, 215, 222, 273, 284, 285 % of control; the T/C under setting [4] is 215 (2×), 292, 319 % of control; the T/C under setting [5] is 160, 176, 181, 190, 195, 198, 211 [9 of 10 alive on day 14], 229, 230 % of control. Also, the survivor count is 5 of 10 on day 14 under setting [1]; 6 of 10 on day 14 (dose: 80.0 mg/kg/injection, schedule: Q04DX004 (ip), vehicle: saline); 6 of 10 on day 14 under setting [2]; 6 of 10 on day 14 under setting [3]; 6 of 10 on day 14 and 8 of 10 on day 14 (dose: 160.0 mg/kg/injection, schedule: Q04DX004 (ip), vehicle: saline); 10 of 10 on day 9 under setting [4]. Moreover, the survivor count under setting [5] was 4 of 10 on day 14.

For the molecule `O=C(O)c1nn(-c2ccccc2-c2n[nH]c(=O)[nH]c2=O)c(=O)[nH]c1=O`, the survivor count under setting [6] is on record as 10 of 10 on day 14 and the survivor count (dose: 800.0 mg/kg/injection, schedule: Q04DX004 (ip), vehicle: saline with Tween-80) is listed as 8 of 10 on day 14.

On to `CCC/C=C/C=C/C(=O)OC1/C(=C/C(=O)OC)CC2CC(C(C)O)OC(=O)CC(O)CC3CC(OC(C)=O)C(C)(C)C(O)(CC4C/C(=C/C(=O)OC)CC(/C=C/C(C)(C)C1(O)O2)O4)O3` (stereo not given), for which the T/C (dose: 160.0 micrograms/kg/injection, schedule: Q01DX009 (ip), vehicle: saline) is 126 % of control.

In the case of `O=S1ON=C(C2CCC(C3=NOS(=O)O3)C2)O1` (stereo not given), the survivor count under setting [6] is reported as 3 of 10 on day 14.
